Results reported in PubChem BioAssay AID504467 (National Center for Advancing Translational Sciences (NCATS), 2011).
Out of some 330,000 compounds screened, about 7,700 (2.3%) were called active. The inconclusive results got no clear call from the source; some entries with a clear call stand among them for comparison. Calls follow the shape of the dose curve; as a rule, active = well fitted inhibition curve with a large enough effect; inconclusive = small, poorly fitted or top-dose-only effect, or effect the other way; inactive = flat fitted curve, though single readings scatter. Potencies beside an inconclusive call are fits to weak or partial responses and may not hold up.

Test: qHTS screen for small molecules that inhibit ELG1-dependent DNA repair in human embryonic kidney (HEK293T) cells expressing luciferase-tagged ELG1; also: nearly all actives have a fitted effect of over 55% in size
Conditions: HEK293T ELG1-luciferase reporter, luminescence, 16 h, DNA damage induced by 5-fluorouridine; series mostly up to 46.1 µM
Outline: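 In this reporter screen, reduction of luminescence relative to DMSO vehicle indicated activity. Compounds and 5-fluorouridine were added together to 2,000 cells per well, incubated for 16 hr at 37 °C, then developed with ONE-Glo.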
Potency is read from the fitted curve at half-maximal effect.

Row | SMILES | Potency
1 | O=C1/C(=C\c2ccc([N+](=O)[O-])cc2)N2CCC1CC2 | inactive
2 | CCCCN1C(=O)/C(=C\c2ccco2)C(=O)N(CCc2ccccc2)C1=O | inactive
3 | O=C(c1ccccc1F)c1cn(Cc2ccccc2)c2ccccc12 | inactive
4 | O=[N+]([O-])c1ccc(Nc2ccccc2)cc1 | inconclusive: 29.1 µM [activator, single point]
5 | O=C1NC(=O)N(Cc2ccco2)C(=O)/C1=C/c1ccc(-c2cccc([N+](=O)[O-])c2)o1 | inconclusive: 29.1 µM [inhibitor, single point]
6 | Cc1ccc(Cl)cc1N1CCN(CCN)CC1 | inactive
7 | Cc1ccc(-c2cc(C(F)F)n3ncc(C(=O)N4CCC5(CC4)OCCO5)c3n2)cc1 | active: 18.4 µM
8 | C[C@H]1[C@H](OC(=O)CCC(=O)NCc2ccc(C(=O)O)cc2)O[C@@H]2O[C@@]3(C)CC[C@H]4[C@H](C)CC[C@@H]1C24OO3 | inconclusive: 1.16 µM [inhibitor, full curve, poor fit]
9 | CCOc1ccc(N2C(=O)NC(=O)/C(=C\c3ccc(N4CCOCC4)cc3C)C2=O)cc1 | inconclusive: 20.6 µM [activator, partial curve, poor fit]
10 | CCC(=NCCc1c[nH]c2ccccc12)c1c(O)n(-c2ccc(C)cc2)c(=O)[nH]c1=O | inconclusive: 23.1 µM [inhibitor, single point]
11 | CCC(C)N1C(=O)NC(=O)C2(Cc3cc(C)ccc3N(C)C2)C1=O (stereo unspecified) | inconclusive: 13 µM [activator, partial curve]
12 | O=c1[nH]c(=S)[nH]c(O)c1N=Nc1ccc2c(c1)OCO2 | inconclusive: 16.4 µM [activator, partial curve]
13 | O=Cc1cn(Cc2cccc([N+](=O)[O-])c2)c2ccccc12 | inconclusive: 0.731 µM [inhibitor, full curve, poor fit]
14 | C=CCN1C(=O)NC(=O)C(Cc2ccc(OC)c(OC)c2)C1=O (stereo unspecified) | inactive
15 | Oc1ccccc1CN(CCc1ccccc1)Cc1ccccc1 | inconclusive: 5.62 µM [activator, single point]
16 | O=c1[nH]c2ccccc2c(=O)n1-c1cccc(Cl)c1 | inactive
17 | O=C(N/N=C/c1c(O)n(C2CC2)c(=S)[nH]c1=O)c1ccccc1O | inconclusive: 16.4 µM [activator, single point]
18 | CCCCC(CC)COCCCN=Cc1c(O)[nH]c(=S)[nH]c1=O (stereo unspecified) | inconclusive: 7.3 µM [inhibitor, partial curve, poor fit]
19 | CCC(C)NC(=O)c1c(N)n(Cc2ccc3c(c2)OCO3)c2nc3ccccc3nc12 (stereo unspecified) | inconclusive: 29.1 µM [inhibitor, single point]
20 | CN(C)C(Cc1ccc(C#N)cc1)C(=O)c1ccccc1 (stereo unspecified) | inconclusive: 20.6 µM [activator, partial curve, poor fit]
21 | CC(C)OCCCNC(=O)c1c(N)n(CC2CCCO2)c2nc3ccccc3nc12 (stereo unspecified) | active: 9.2 µM
22 | COc1ccc(-[n+]2c(-c3ccccc3)cc(-c3ccc(C)cc3)cc2-c2ccccc2)cc1 | active: 3.66 µM

Some values from above:
O=C1/C(=C\c2ccc([N+](=O)[O-])cc2)N2CCC1CC2 – Potency: inactive
CCCCC(CC)COCCCN=Cc1c(O)[nH]c(=S)[nH]c1=O (stereo unspecified) – Potency: inconclusive: 7.3 µM [inhibitor, partial curve, poor fit]
O=c1[nH]c2ccccc2c(=O)n1-c1cccc(Cl)c1 – Potency: inactive

The listing continues:

Row | SMILES | Potency
23 | COc1ccc(CCn2c(NN=C3CCCCC3)nc3c2c(=O)[nH]c(=O)n3C)cc1 | inconclusive: 20.6 µM [inhibitor, partial curve]
24 | CC1Oc2cc3c(-c4c(O)cc(O)c5c(O)c6c(cc45)OC(C)C(C)C6=O)c(O)cc(O)c3c(O)c2C(=O)C1C (stereo unspecified) | active: 6.51 µM
25 | CCN(CC)S(=O)(=O)c1ccc(NN=C(C#N)C#N)cc1 | inconclusive: 16.4 µM [inhibitor, single point]
26 | CC(C)(C)n1ncc2c(=O)n(Cc3cccc(Cn4cnc5c(cnn5C(C)(C)C)c4=O)c3F)cnc21 | active: 8.2 µM
27 | O=C(c1cc(F)ccc1F)C1CCCN(Cc2ccc3nonc3c2)C1 (stereo unspecified) | inconclusive: 23.1 µM [inhibitor, single point]
28 | CC(C)(C)C(=O)O[C@H]1CC[C@@]2(C)C(=CC(=O)C3C2CC[C@]2(C)C(=O)CCC32)C1 (stereo partly specified) | inconclusive: 32.6 µM [activator, partial curve, poor fit]
29 | COC(=O)C1=C(c2ccc(F)cc2OCc2ccccc2)C[C@@H]2CC[C@H]1N2C(=O)NCCOc1ccc(OC)cc1 | inconclusive: 20.6 µM [inhibitor, partial curve, poor fit]
30 | Cc1ccc(Cn2c(C)c3cnn(CC(=O)N4CCC5(CC4)OCCO5)c(=O)c3c2C)cc1 | inconclusive: 25.9 µM [inhibitor, partial curve]
31 | Cc1cccc(-c2nc3ccc(C(=O)N4CCC5(CC4)OCCO5)cc3nc2-c2cccc(C)c2)c1 | inconclusive: 16.4 µM [inhibitor, partial curve, poor fit]
32 | Cc1ccc(OC(=O)c2ccc(Br)o2)cc1 | inconclusive: 0.231 µM [inhibitor, partial curve, poor fit]
33 | N#CC1=C(N)Oc2c(c(=O)oc3ccccc23)C1c1ccc(OC(=O)N2CCOCC2)cc1 (stereo unspecified) | inconclusive: 0.58 µM [inhibitor, partial curve, poor fit]
34 | CC1CN=C(Nc2cccc3ccccc23)S1 (stereo unspecified) | inconclusive: 10.3 µM [activator, partial curve, poor fit]
35 | CCOc1cccc(=NC2CCCCC2)c2c(C)n(C)c(C)c12 | active: 4.61 µM
36 | COC(=O)C1=C(c2ccc3ccccc3c2)C[C@@H]2CC[C@H]1N2C(=O)NCc1ccc(C(F)(F)F)cc1 | inconclusive: 29.1 µM [inhibitor, single point]
37 | O=C(O)c1ccccc1SCC(=O)N1c2ccccc2Sc2ccccc21 | inconclusive: 29.1 µM [activator, single point]
38 | N/C(=N\[N+](=O)[O-])N1CCN(C(=O)c2ccccn2)CC1 | inactive
39 | CCCCn1c(NC(=O)c2ccco2)c(C(=O)OCC)c2nc3ccccc3nc21 | inconclusive: 23.1 µM [inhibitor, partial curve]
40 | O=C(c1cc2cc(Cl)ccc2[nH]1)N1CCC2(CC1)OCCO2 | inconclusive: 16.4 µM [activator, partial curve]
41 | CCCCc1nc2ccccc2c(=O)n1-c1ccc(O)cc1 | inconclusive: 11.6 µM [inhibitor, partial curve, poor fit]
42 | CN1C(=O)C(=Cc2ccccc2OS(=O)(=O)c2ccccc2)C(=O)N(C)C1=O | inconclusive: 29.1 µM [activator, single point]
43 | CCOc1cccc(N2C(=O)/C(=C/c3ccco3)C(=O)NC2=S)c1 | inactive
44 | Cc1cccc(CCNCc2cc3ccc(C)cc3[nH]c2=O)c1 | inconclusive: 0.259 µM [activator, single point]

Row | SMILES | Potency
45 | N[C@@H](Cc1ccc(N(CCCl)CCCl)cc1)C(=O)O | inactive
46 | Cn1c(=O)c(Oc2ccc(F)cc2)c(O)c2ccccc21 | inconclusive: 29.1 µM [inhibitor, single point]
47 | CCCCn1c(O)c(C(C)=NCc2cccnc2)c(=O)[nH]c1=O | inactive
48 | Cn1c(O)c(C=NCCCCCCCCCCC(=O)O)c(=O)n(C)c1=O | inconclusive: 6.51 µM [inhibitor, single point]
49 | CN1CCN(c2cccc3c2C(=O)c2ccccc2C3=O)CC1 | inconclusive: 20.6 µM [activator, partial curve]
50 | Cc1ccc(-c2nn(Cc3ccccc3)cc2C=O)cc1 | inconclusive: 18.4 µM [activator, partial curve]
51 | Cc1cccc(OP(=O)(Nc2cccnc2)Oc2cccc(C)c2)c1 | inconclusive: 23.1 µM [inhibitor, partial curve]
52 | Cc1cccc(N2CCc3c2nc2ccccc2c3N)c1 | inconclusive: 35.5 µM [inhibitor, single point]
53 | CCOc1cc2c(cc1OCC)-n1cccc1C(c1cccc(F)c1F)NC2 (stereo unspecified) | inactive
54 | O=c1[nH]c(=S)[nH]c(O)c1N=Nc1cc(S(=O)(=O)Nc2ccc(Cl)cc2)ccc1Cl | inactive
55 | CSc1nnc([C@@H](N)Cc2c[nH]c3ccccc23)o1 | inconclusive: 6.51 µM [activator, single point]
56 | Cc1cc(OC(=O)N(C)C)nc(SCc2c(Cl)cccc2Cl)n1 | inconclusive: 29.1 µM [inhibitor, single point]
57 | COc1ccc(-n2c(O)c(/C(C)=N/Nc3ccccc3)c(=O)[nH]c2=O)cc1 | active: 7.3 µM
58 | O=C(Oc1ccc(Cl)c2cccnc12)N1CCCCCC1 | inconclusive: 25.9 µM [activator, single point]
59 | CSc1nnc(OC(=O)N(C)C)n1-c1ccc(Cl)cc1 | inconclusive: 18.3 µM [activator, partial curve, poor fit]
60 | COc1cccc(C(=O)C2CCCN(Cc3ccccn3)C2)c1 (stereo unspecified) | inactive
61 | Cn1cc(C(=O)c2ccccc2)c2ccccc21 | inconclusive: 18.4 µM [activator, partial curve, poor fit]
62 | CCN1CCN(c2nc3ccccc3s2)CC1 | inconclusive: 14.6 µM [activator, partial curve]
63 | O=C(CSc1nc2ccccc2[nH]1)NC1CCCc2ccccc21 (stereo unspecified) | inconclusive: 23.1 µM [inhibitor, single point]
64 | COC(=O)C1=C(c2ccc(OC(F)(F)F)cc2)C[C@@H]2CC[C@H]1N2C(=O)N1CCCCC1 | inactive
65 | CN1C(=O)NC(=O)/C(=C\C=C\c2ccccc2[N+](=O)[O-])C1=O | inconclusive: 29.1 µM [inhibitor, single point]
66 | CC1(CCl)CN1S(=O)(=O)c1ccccc1 (stereo unspecified) | inconclusive: 11.6 µM [inhibitor, partial curve]
